Primary screen of a compound library

By UniProt entry, the sequences of proteins in these tests, tags left out.
UniProt P9WNZ1, whole entry: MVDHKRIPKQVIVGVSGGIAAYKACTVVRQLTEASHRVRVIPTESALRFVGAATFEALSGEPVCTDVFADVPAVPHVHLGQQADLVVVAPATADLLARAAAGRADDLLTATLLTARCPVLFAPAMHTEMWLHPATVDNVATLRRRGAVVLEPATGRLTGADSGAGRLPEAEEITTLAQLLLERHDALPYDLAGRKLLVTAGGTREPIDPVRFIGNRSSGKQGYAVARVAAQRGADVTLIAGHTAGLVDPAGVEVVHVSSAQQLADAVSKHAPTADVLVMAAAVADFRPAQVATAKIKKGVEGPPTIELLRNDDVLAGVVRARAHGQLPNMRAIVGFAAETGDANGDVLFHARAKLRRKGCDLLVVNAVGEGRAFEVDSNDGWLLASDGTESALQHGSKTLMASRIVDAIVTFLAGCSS
UniProt P9WFT3, whole entry: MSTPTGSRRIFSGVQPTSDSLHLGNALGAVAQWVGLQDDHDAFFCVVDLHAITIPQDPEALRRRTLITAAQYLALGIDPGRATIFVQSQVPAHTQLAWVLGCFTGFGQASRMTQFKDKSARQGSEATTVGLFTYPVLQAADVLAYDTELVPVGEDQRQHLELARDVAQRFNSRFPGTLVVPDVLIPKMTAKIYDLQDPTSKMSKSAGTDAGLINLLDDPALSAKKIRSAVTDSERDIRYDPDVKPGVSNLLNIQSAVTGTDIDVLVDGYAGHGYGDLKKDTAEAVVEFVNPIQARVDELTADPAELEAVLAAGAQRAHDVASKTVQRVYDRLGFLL

A: 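Coenzyme A biosynthesis protein CoaBC, Mycobacterium tuberculosis (UniProt P9WNZ1). Enzyme assay of CoaBC with a phosphate dye (Biomol Green) read at 650 nm. Tested at 30 µM. Direction is inferred from only a few compounds that gave an IC50; most scored high, so higher reads as stronger inhibition. Most strong results did not repeat in a second test. Size under these conditions: about 67,000 compounds, about 40 of them at 50% or above in at least one test.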
B: 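Tryptophan-tRNA ligase, Mycobacterium tuberculosis (UniProt P9WFT3). Enzyme assay of tryptophanyl-tRNA synthetase; the read-out is not stated. Concentration: 10 µM. Higher most likely means stronger inhibition; the record gives no direction and few retests gave an IC50. About 65,000 compounds were tested under these conditions; 0.098% (about 64) showed 50% or more at least once.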

Results are given as percent effect. The controls that fix the scale are not given in the record; negative values are as filed. This is an unselected part of the compounds tested. Two or more numbers in one place are separate tests of the same structure; such repeats can differ widely. A dash means the value is not listed here; it may have been measured.

structure,A,B
CN1C(=O)CC(C(=O)O)C12CCN(c1ccc3ccccc3n1)CC2 (stereo not shown),1.948,-5.475
N#Cc1ccc(CN2CCCC2Cn2cccn2)c(F)c1 (stereo not shown),2.551,-3.129
COc1ccc(NC(C)=O)cc1OCc1cccnc1,0.2481,-1.332
CO[C@H]1CN(S(=O)(=O)c2ccc(C)cc2)C[C@@]12CCCO2,8.625,-5.543
CN1CCc2nc(C3CCCN(C(=O)CC(C)(C)C)C3)ncc2C1 (stereo not shown),3.155,-
CC(C)CCN(C)Cc1ccccc1-c1nc(C(C)C)cc(=O)[nH]1,0.2123,4.104
CC(NC(=O)NCc1cccc(F)c1)(C(=O)O)c1ccco1 (stereo not shown),3.52,-0.05893
CC(C(=O)NC1CCN(C)CC1)n1nc(C(F)(F)F)c(Cl)c1C1CC1 (stereo not shown),0.8037,2.294
CNC(=O)C(C)CN(C)C(=O)Nc1ccc(Cl)cc1-n1cccc1 (stereo not shown),1.594,-2.961
CC(C)(C)c1n[nH]c(C2CN(C(=O)CCc3cscn3)CCO2)n1 (stereo not shown),0.2591,3.044
CCc1c(C(=O)N2CCN(c3cnccn3)CC2)cnn1C(C)(C)C,4.779,22.48
CCC(=O)Nc1cc(Br)cnc1OCC(F)(F)F,-5.645,-0.1211
CN1C(=O)C(C)(C)COc2cc(NS(=O)(=O)Cc3ccccc3)ccc21,-1.919,-2.78
COc1cccc(S(=O)(=O)N2CCCCC2CCN2CCCC2=O)c1 (stereo not shown),1.284,3.778
CC(=O)N1CC(C(=O)NC(C)c2cnn(C)c2C)C1 (stereo not shown),0.4843,-0.1958
C[C@@H]1CN(CC(C)(C)N2CCCCC2)CC[C@@]1(O)C1CC1,1.606,1.001
CS(=O)(=O)NCCCNC(=O)c1cnc(-c2ccsc2)s1,0.8264,0.6517
CCNC(=O)[C@@H]1C[C@@H](n2cc(CN(CC)CC)nn2)CN1,2.057,-5.578
CC(C)(C)c1cc(CN2C[C@H]3CC[C@@H]2CN(Cc2ccccn2)C3)n[nH]1,-14.07,-1.288
CS(=O)(=O)c1ccc(-c2c[nH]c([C@@H]3COCCN3)n2)cc1,12.7 and 21.41,-7.857
CCCn1ccc(C(=O)Nc2ccc3c(c2)C(C)(C)C(=O)N3C)n1,-3.418,-0.8136
CCN(CC1CCOC1)C(=O)c1cccnc1N1CCOCC1 (stereo not shown),4.174,-2.047
Cc1ccc(C2CN(CCS(C)(=O)=O)CCO2)c(C)c1 (stereo not shown),-0.4603,-3.145
O=C(c1cnc(-c2ccccc2)s1)N1CCC2(CC1)OCCO2,-3.913,-28.23
CCc1c(C(=O)N2CCC3(CC(=O)NC3=O)C2)csc1C (stereo not shown),4.421,-1.979
O=C(Cn1cc(-c2ccccc2)ncc1=O)Nc1ncc[nH]1,0.5109,-0.618
COCC1CCN(C(C(=O)O)c2c(F)cccc2OC(C)C)CC1 (stereo not shown),-19.49,-4.205
Cn1ccc2cc(C(=O)N3CCOCC3)ccc21,7.937,-0.486
O=C(C1CCCC1)N1CCN(Cc2nc(-c3ccco3)no2)CC1,12.48,-4.373
CN1CCN(C(=O)Cc2csc(-c3ccsc3)n2)C(c2ccccc2)C1 (stereo not shown),1.29,0.2742
CC(=O)NCc1nc(Cc2cccc(Cl)c2)nn1C1CCN(C)CC1,-6.46,0.8258
O=C(CCc1cc2n(n1)CCCN(C(=O)[C@H]1CCCO1)C2)NC1CC1,-0.361,-1.321
Cc1cc(C)cc(NCCC(=O)NCc2cccnc2N(C)C)c1,9.742,3.307
Cc1cnn(CC2CCCCN2C(=O)c2nccnc2N)c1 (stereo not shown),4.961,-3.135
CCc1[nH]c2c(CNC(=O)C3CCC(=O)NC3)cc(C)cc2c1C (stereo not shown),-1.863,2.605
CCS(=O)(=O)c1ccccc1C(=O)NCC1Cc2ccccc2O1 (stereo not shown),-2.445,2.114
CCC(C)N(Cc1cnc(OC)nc1)Cc1ccsc1 (stereo not shown),0.5981,0.3661
c1cc(-c2noc([C@@H]3Cc4nc[nH]c4CN3)n2)ccn1,12.42,-3.69
Fc1ccc(-c2nc(CN3CCOC(Cn4cccn4)C3)co2)cc1 (stereo not shown),11.3,1.846
CC(C)(C)n1ncc(NCC(O)c2ccc(F)c(F)c2)c(Cl)c1=O (stereo not shown),10.44,4.258
COCCC1(CO)CCCN(C(=O)c2cc(C#N)c(=O)[nH]c2C)C1 (stereo not shown),2.4,-6.708
O=C(COCc1ccccc1Cl)N1CCCC(n2cccn2)C1 (stereo not shown),1.282,-3.518
COc1cccc(-c2n[nH]c3c2CN(C(=O)c2ccncc2)CC3)c1,0.2169,-0.7498
O=C(C1CC1)N1CCC(C(=O)N2CCC(c3ccc(F)cc3)C2)CC1 (stereo not shown),-1.613,4.262
O=C(Nc1ccc(F)cc1F)NC1(CO)CCOCC1,3.65,-3.849
Cc1nnc(CN(C)C2CCN(Cc3nc4ccccc4n3C)C2)o1 (stereo not shown),1.828,-2.443
CCC1CCCCN1C(=O)Cn1cnc(C#N)n1 (stereo not shown),4.545,1.232
CC[C@H](C)[C@H](NC(=O)c1ccc(-n2cnnn2)cc1)C(=O)OC,3.753,-1.711
CC(CCN1CCn2nc(CNC(=O)N(C)C)cc2C1)c1ccccc1 (stereo not shown),3.625,1.006
CC(C)N1CCN(C(=O)c2ccccc2NCc2cccnc2)CC1,8.76,2.203

Some entries from above, unchanged:

structure	A	B
CC(CCN1CCn2nc(CNC(=O)N(C)C)cc2C1)c1ccccc1 (stereo not shown)	3.625	1.006
CCS(=O)(=O)c1ccccc1C(=O)NCC1Cc2ccccc2O1 (stereo not shown)	-2.445	2.114
O=C(C1CC1)N1CCC(C(=O)N2CCC(c3ccc(F)cc3)C2)CC1 (stereo not shown)	-1.613	4.262
CS(=O)(=O)NCCCNC(=O)c1cnc(-c2ccsc2)s1	0.8264	0.6517
CCN(CC1CCOC1)C(=O)c1cccnc1N1CCOCC1 (stereo not shown)	4.174	-2.047
Cc1cc(C)cc(NCCC(=O)NCc2cccnc2N(C)C)c1	9.742	3.307

From ChEMBL document CHEMBL3988442, “University of Dundee, Small-Polar-MMV Screening Library” (2021).